Assay results reported in PubChem BioAssay AID272 (DTP/NCI, 2004).
The list is a part of this screen's results and no random one: it gathers tests that were run many times, whatever their T/C, doses with no T/C, and many T/C values between a quarter and a half above the control. Other doses and runs of a compound stand elsewhere. T/C is the treated group as % of the vehicle group. Schedule codes are those of the source, read here as Q, the interval in days (D) or hours (H), X, the number of doses. Some doses have a count of surviving animals in place of a T/C: the source holds a T/C of zero for them, seemingly a mark for toxic or unscored doses. Some doses without a T/C left all or most animals alive at the check, yet need not have been tolerated: survival well below the control is almost never listed, so the zero probably covers shortened survival too. Survivors were counted at the toxicity check, usually on the fifth day, unless a day is given; later deaths do not show. Some doses were run more than once; their values stand side by side, smallest first. For survival time, the PubChem record calls one and a half times the control and up active, and a quarter to a half above the control has no call in these data; cut-offs in other NCI protocols can differ. Some T/C values are followed by the survivors on the day toxicity was checked, most often the fifth; without a count, all were alive then.

Tested on: Lewis lung carcinoma i.m., BDF1 mice, T/C %
Assay: NCI In Vivo Anticancer Drug Screen. Data for tumor model Lewis Lung Carcinoma (intramuscular) in B6D2F1 (BDF1) mice
Method in brief: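 Compound given to mice with transplantable tumours; survival or tumour size compared against the vehicle control group, reported as T divided by C.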

[1] = T/C endpoint: median survival time, dose: 16.0 mg/kg/injection, schedule: Q01DX011 (ip), vehicle: saline, higher T/C = longer survival
[2] = T/C endpoint: median survival time, dose: 32.0 mg/kg/injection, schedule: Q01DX011 (ip), vehicle: saline, higher T/C = longer survival

CC(C)[C@](O)(C(=O)OCC1=CC[N+]2([O-])CC[C@@H](O)[C@@H]12)[C@H](C)O (stereo partly specified)
survivor count (T/C endpoint: mean tumor weight (est.), dose: 800.0 mg/kg/injection, schedule: Q01DX011 (ip), vehicle: saline, higher T/C = larger tumour): 5 of 8
survivor count (T/C endpoint: median survival time, dose: 800.0 mg/kg/injection, schedule: Q01DX011 (ip), vehicle: saline, higher T/C = longer survival): 5 of 8
survivor count (T/C endpoint: median survival time, dose: 1600.0 mg/kg/injection, schedule: Q01DX011 (ip), vehicle: saline, higher T/C = longer survival): 0 of 8

CS(=O)(=O)OCCCCOS(C)(=O)=O
survivor count (T/C endpoint: mean tumor weight, dose: 50.0 mg/kg/injection, schedule: Q01DX011 (ip), vehicle: Klucel (hydroxypropylcellulose) (HPC), higher T/C = larger tumour): 2 of 8
survivor count (T/C endpoint: median survival time, dose: 25.0 mg/kg/injection, schedule: Q01DX011 (ip), vehicle: Klucel (hydroxypropylcellulose) (HPC), higher T/C = longer survival): 6 of 8
survivor count (T/C endpoint: median survival time, dose: 50.0 mg/kg/injection, schedule: Q01DX011 (ip), vehicle: Klucel (hydroxypropylcellulose) (HPC), higher T/C = longer survival): 0 of 10 and 2 of 8
survivor count (T/C endpoint: median survival time, dose: 100.0 mg/kg/injection, schedule: Q01DX011 (ip), vehicle: Klucel (hydroxypropylcellulose) (HPC), higher T/C = longer survival): 0 of 10 and 0 of 8
survivor count (T/C endpoint: median survival time, dose: 200.0 mg/kg/injection, schedule: Q01DX011 (ip), vehicle: Klucel (hydroxypropylcellulose) (HPC), higher T/C = longer survival): 0 of 10 and 0 of 8
survivor count (T/C endpoint: median survival time, dose: 400.0 mg/kg/injection, schedule: Q01DX011 (ip), vehicle: Klucel (hydroxypropylcellulose) (HPC), higher T/C = longer survival): 0 of 10
survivor count (T/C endpoint: median survival time, dose: 800.0 mg/kg/injection, schedule: Q01DX011 (ip), vehicle: Klucel (hydroxypropylcellulose) (HPC), higher T/C = longer survival): 0 of 10

Cc1cc(C)c(NC(=O)N(CCCl)N=O)cc1C
survivor count (T/C endpoint: median survival time, dose: 23.0 mg/kg/injection, schedule: Q07DX003 (ip), vehicle: saline + alcohol, higher T/C = longer survival): 6 of 8
survivor count (T/C endpoint: median survival time, dose: 39.0 mg/kg/injection, schedule: Q07DX003 (ip), vehicle: saline + alcohol, higher T/C = longer survival): 6 of 8
survivor count (T/C endpoint: median survival time, dose: 65.0 mg/kg/injection, schedule: Q07DX003 (ip), vehicle: saline + alcohol, higher T/C = longer survival): 6 of 8
survivor count (T/C endpoint: median survival time, dose: 108.0 mg/kg/injection, schedule: Q07DX003 (ip), vehicle: saline + alcohol, higher T/C = longer survival): 7 of 8
survivor count (T/C endpoint: median survival time, dose: 180.0 mg/kg/injection, schedule: Q07DX003 (ip), vehicle: saline + alcohol, higher T/C = longer survival): 4 of 8

CN(C)c1nc(N(C)C)nc(N(C)C)n1
survivor count (T/C endpoint: mean tumor weight (est.), dose: 200.0 mg/kg/injection, schedule: Q01DX011 (ip), vehicle: saline with Tween-80, higher T/C = larger tumour): 3 of 8
survivor count (T/C endpoint: mean tumor weight, dose: 250.0 mg/kg/injection, schedule: Q01DX011 (ip), vehicle: steroid suspending solution, higher T/C = larger tumour): 5 of 8
survivor count (T/C endpoint: median survival time, dose: 250.0 mg/kg/injection, schedule: Q01DX011 (ip), vehicle: steroid suspending solution, higher T/C = longer survival): 5 of 8

COc1cccc2c1C(=O)c1c(O)c3c(c(O)c1C2=O)C[C@@](O)(C(=O)COC(=O)Cc1cccc2ccccc12)C[C@@H]3OC1CC(N)C(O)C(C)O1 (stereo partly specified)
T/C (T/C endpoint: median survival time, dose: 2.0 mg/kg/injection, schedule: Q01DX011 (ip), vehicle: other, higher T/C = longer survival): 139 % of control [4 of 6 alive]
survivor count (T/C endpoint: median survival time, dose: 4.0 mg/kg/injection, schedule: Q01DX011 (ip), vehicle: other, higher T/C = longer survival): 0 of 6

Nc1nc(=S)c2ncn(C3CC(O)C(CO)O3)c2[nH]1 (stereo unspecified)
T/C (T/C endpoint: mean tumor weight, dose: 1.56 mg/kg/injection, schedule: Q01DX011 (ip), vehicle: other, evaluated on day 12, higher T/C = larger tumour): 131 % of control
survivor count (T/C endpoint: mean tumor weight, dose: 50.0 mg/kg/injection, schedule: Q01DX011 (ip), vehicle: other, higher T/C = larger tumour): 5 of 8
survivor count (T/C endpoint: median survival time, dose: 50.0 mg/kg/injection, schedule: Q01DX011 (ip), vehicle: other, higher T/C = longer survival): 5 of 8

CCc1ccc(/C=C/c2ccc(O)c3ncccc23)[n+](C)c1
survivor count [1]: 7 of 8
survivor count [2]: 0 of 8

CCCCCCCCCCCC[N+](C)(C)C (tested in a mixture with another compound)
survivor count (T/C endpoint: median survival time, dose: 12.5 mg/kg/injection, schedule: Q01DX011 (ip), vehicle: saline, higher T/C = longer survival): 0 of 8
survivor count (T/C endpoint: median survival time, dose: 25.0 mg/kg/injection, schedule: Q01DX011 (ip), vehicle: saline, higher T/C = longer survival): 0 of 8
survivor count (T/C endpoint: median survival time, dose: 50.0 mg/kg/injection, schedule: Q01DX011 (ip), vehicle: saline, higher T/C = longer survival): 0 of 8

C1CN1c1nc(N2CC2)nc(N2CC2)n1
T/C (T/C endpoint: median survival time, dose: 0.1 mg/kg/injection, schedule: Q01DX011 (ip), vehicle: saline, higher T/C = longer survival): 128 % of control
T/C (T/C endpoint: median survival time, dose: 0.2 mg/kg/injection, schedule: Q01DX011 (ip), vehicle: saline, higher T/C = longer survival): 126 % of control
T/C (T/C endpoint: median survival time, dose: 0.25 mg/kg/injection, schedule: Q01DX011 (ip), vehicle: saline, higher T/C = longer survival): 137 % of control
survivor count (T/C endpoint: median survival time, dose: 0.4 mg/kg/injection, schedule: Q01DX011 (ip), vehicle: saline, higher T/C = longer survival): 7 of 10
survivor count (T/C endpoint: median survival time, dose: 0.5 mg/kg/injection, schedule: Q01DX011 (ip), vehicle: saline, higher T/C = longer survival): 0 of 8
survivor count (T/C endpoint: median survival time, dose: 0.8 mg/kg/injection, schedule: Q01DX011 (ip), vehicle: saline, higher T/C = longer survival): 1 of 10 and 8 of 10
survivor count (T/C endpoint: median survival time, dose: 1.0 mg/kg/injection, schedule: Q01DX011 (ip), vehicle: saline, higher T/C = longer survival): 0 of 8
survivor count (T/C endpoint: median survival time, dose: 1.6 mg/kg/injection, schedule: Q01DX011 (ip), vehicle: saline, higher T/C = longer survival): 0 of 10
survivor count (T/C endpoint: median survival time, dose: 3.2 mg/kg/injection, schedule: Q01DX011 (ip), vehicle: saline, higher T/C = longer survival): 0 of 10

CCCCCCC(=O)O[C@H]1CC[C@H]2[C@@H]3CCC4=CC(=O)CC[C@]4(C)[C@H]3CC[C@]12C
survivor count (T/C endpoint: median survival time, dose: 10.0 mg/kg/injection, schedule: Q01DX009 (ip), vehicle: Klucel (hydroxypropylcellulose) (HPC), higher T/C = longer survival): 10 of 10

CCN1/C(=C/C=C/c2oc3ccccc3[n+]2CC)Oc2ccccc21
survivor count (T/C endpoint: median survival time, dose: 75.0 micrograms/kg/injection, schedule: Q01DX011 (ip), vehicle: saline, higher T/C = longer survival): 8 of 8
survivor count (T/C endpoint: median survival time, dose: 150.0 micrograms/kg/injection, schedule: Q01DX011 (ip), vehicle: saline, higher T/C = longer survival): 8 of 8

CS(=O)(=O)c1cc(C(F)(F)F)cc([N+](=O)[O-])c1Cl
survivor count (T/C endpoint: mean tumor weight (est.), dose: 100.0 mg/kg/injection, schedule: Q01DX011 (ip), vehicle: saline with Tween-80, higher T/C = larger tumour): 2 of 8
survivor count (T/C endpoint: median survival time, dose: 100.0 mg/kg/injection, schedule: Q01DX011 (ip), vehicle: saline with Tween-80, higher T/C = longer survival): 2 of 8
survivor count (T/C endpoint: median survival time, dose: 200.0 mg/kg/injection, schedule: Q01DX011 (ip), vehicle: saline with Tween-80, higher T/C = longer survival): 0 of 8

C[C@@H]1O[C@@H](O[C@H]2CC[C@]3(C=O)[C@H]4CC[C@]5(C)[C@@H](c6ccc(=O)oc6)CC[C@]5(O)[C@@H]4CC[C@]3(O)C2)[C@H](O)[C@H](O)[C@H]1O[C@@H]1O[C@H](CO)[C@@H](O)[C@H](O)[C@H]1O
survivor count (T/C endpoint: mean tumor weight (est.), dose: 2.5 mg/kg/injection, schedule: Q01DX011 (ip), vehicle: saline, higher T/C = larger tumour): 5 of 8
survivor count (T/C endpoint: median survival time, dose: 2.5 mg/kg/injection, schedule: Q01DX011 (ip), vehicle: saline, higher T/C = longer survival): 5 of 8
survivor count (T/C endpoint: median survival time, dose: 5.0 mg/kg/injection, schedule: Q01DX011 (ip), vehicle: saline, higher T/C = longer survival): 0 of 8

CCN1C=C/C(=C\C=C/c2cc[n+](CC)c3ccccc23)c2ccccc21
survivor count (T/C endpoint: mean tumor weight (est.), dose: 0.05 mg/kg/injection, schedule: Q01DX011 (ip), vehicle: saline, higher T/C = larger tumour): 1 of 8

O=C1CCCN1.O=C1CCCN1.[Br][Co][Br]
survivor count (T/C endpoint: median survival time, dose: 150.0 mg/kg/injection, schedule: Q01DX011 (ip), vehicle: water, higher T/C = longer survival): 0 of 8
survivor count (T/C endpoint: median survival time, dose: 300.0 mg/kg/injection, schedule: Q01DX011 (ip), vehicle: water, higher T/C = longer survival): 0 of 8

FC(F)c1nc2nc(Cl)c(Cl)nc2[nH]1
survivor count (T/C endpoint: median survival time, dose: 8.0 mg/kg/injection, schedule: Q01DX011 (ip), vehicle: saline, higher T/C = longer survival): 7 of 8
survivor count [1]: 7 of 8
survivor count [2]: 8 of 8
survivor count (T/C endpoint: median survival time, dose: 128.0 mg/kg/injection, schedule: Q01DX011 (ip), vehicle: saline, higher T/C = longer survival): 3 of 8

COc1cc([C@@H]2c3cc4c(c(O)c3C[C@H]3COC(=O)[C@@H]32)OCO4)cc(OC)c1OC
T/C (T/C endpoint: mean tumor weight (est.), dose: 1.0 mg/kg/injection, schedule: Q01DX011 (ip), vehicle: Klucel (hydroxypropylcellulose) (HPC), evaluated on day 12, higher T/C = larger tumour): 129 % of control
survivor count (T/C endpoint: mean tumor weight (est.), dose: 4.0 mg/kg/injection, schedule: Q01DX011 (ip), vehicle: Klucel (hydroxypropylcellulose) (HPC), higher T/C = larger tumour): 1 of 8

Cn1c(Cl)nc2c(Cl)nc(Cl)nc21
survivor count (T/C endpoint: median survival time, dose: 32.0 mg/kg/injection, schedule: Q01DX011 (ip), vehicle: saline with Tween-80, higher T/C = longer survival): 0 of 8
